# Assay results taken from publication PMC11813584, “An odorant-binding protein functions in fire ant social immunity interfacing with innate immunity” (Open Biology, 2025).
# System: S. invicta workers
# Test: GC-MS analysis of cuticular chemicals of B. bassiana-killed versus freeze-killed workers
# Parameters: species or system Solenopsis invicta
# Details: for change on ant cuticle after infection: B. bassiana-killed versus freeze-killed workers; for concentration in B. bassiana-killed ants compared to freeze-killed ants (in words): fatty acids quantified by GC-MS
SMILES,change on ant cuticle after infection,concentration in B. bassiana-killed ants compared to freeze-killed ants (in words)
CC1CCOC1=O (stereo not shown) [3-methyltetrahydro-2-furanone],increases,
CCCCCCCCCCCCCCCCCCCCCC(=O)O [behenic acid],increases,significantly higher in the B. bassiana-killed ants
CCCCCCCCCCC/C=C/CCCCC(=O)O [trans-6-octadecenoic acid],,significantly higher in the B. bassiana-killed ants
